Record: PubChem BioAssay AID686943 (Drosophila RNAi Screening Center, 2013)

- Purpose: 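Search across the genome for regulators of signalling from receptor tyrosine kinase to ERK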 (primary screen)
- Cells: Drosophila S2R+ haemocyte-like cells expressing YFP-tagged ERK (Rolled)
- Reagent: long dsRNA against Drosophila genes
- Conditions: insulin stimulation versus unstimulated cells; dose and duration not given
- Read-out: 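Antibody staining for doubly phosphorylated ERK divided by ERK-YFP signal, as plate z-scores, in insulin-treated and untreated cells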
- Scale: replicate 1, z-score of dpERK with insulin and replicate 2, z-score of dpERK with insulin: higher = more active ERK per ERK-YFP after insulin; replicate 1, z-score of dpERK under basal conditions: higher = more basal active ERK per ERK-YFP; replicate 1, z-score of ERK-YFP with insulin: higher = more YFP-tagged ERK signal
In all, the deposit lists about 23,000 reagents; below is an unselected part of those with a known target gene and a result. 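Extra replicates exist only for a retested subset of genes; insulin dose and duration not given; both raised and lowered dpERK matter.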 No sequences are given here. Not given: the amount of reagent, the time to read-out.

predicted target | amplicon | replicate 1, z-score of dpERK with insulin | replicate 2, z-score of dpERK with insulin | replicate 1, z-score of dpERK under basal conditions | replicate 1, z-score of ERK-YFP with insulin
CG5346 | DRSC15778 | -1.01 | -0.27 | -0.35 | 0.55
CG31462 (retired record) | DRSC14359 | 0.43 | 1.25 | 0.2 | 0.13
twit | DRSC03210 | 0.34 | 0.33 | 0.54 | 0.92
Tusp | DRSC15838 | -0.63 | -1.49 | -0.61 | 0.5
RpS6 | DRSC18712 | -2.63 | 0.52 | -0.67 | -2.49
sinah | DRSC09910 | 0.3 | -0.03 | 0.25 | 0.13
sinah | DRSC22181 | -0.15 | -0.18 | -0.05 | 2.2
thoc5 | DRSC04327 | -0.23 | -0.5 | 1.43 | 0.6
Tsp42Er | DRSC06183 | 0.76 | 0.58 | -0.32 | 0.6
CG32986 | DRSC02509 | -0.03 | -0.21 | 0.57 | -0.7
CG4860 | DRSC15664 | 0.32 | 0.75 | -0.09 | -0.11
CG4860 | DRSC21755 | 0.91 | 0.93 | -0.75 | -1.62
CCDC151 | DRSC10131 | -0.27 | -0.09 | -0.1 | 0.81
CG11231 (retired record) | DRSC17207 | 1.22 | 0.1 | 0.87 | 0.97
Myo31DF | DRSC03376 | 0.54 | -0.28 | 0.71 | 0.73
Myo31DF | DRSC22702 | 0.57 | 0.26 | 0.9 | 0.9
twin | DRSC15259 | -1.74 | -0.53 | -0.84 | 1.03
twin | DRSC15831 | 0.67 | -1.25 | 0 | -0.02
twin | DRSC21363 | -0.41 | -0.29 | 0.17 | 0.07
Sgs5 | DRSC16862 | 0.98 | 0.71 | -0.2 | 0.29
CG9706 | DRSC11095 | -0.01 | 0.04 | 0.44 | -0.36
Ir68a | DRSC10599 | -0.11 | 0.59 | -1.04 | -0.03
nAChRalpha6 | DRSC01096 | -0.45 | -0.51 | -0.02 | -0.42
nAChRalpha6 | DRSC01098 | -1.06 | -0.22 | -1.49 | 0.24
nAChRalpha6 | DRSC02738 | -0.94 | -0.06 | 0.89 | 0.53
